{"source": "patent US5734081A", "about": "“Arylthio compounds” (Warner-Lambert Company, priority 1995, dated 1998)", "biological_target": "NCp7 (Human immunodeficiency virus type 1 (NEW YORK-5 ISOLATE), UniProt P12493)", "assay": "Electrospray ionization mass spectral analysis of NCp7 with compound", "assay_type": "binding, HIV-1", "conditions": "40 μM NCp7, 320 μM compound, pH 6, 2 minutes", "note": "At least one compound was matched to its structure with a doubt left."}
{"smiles": "CCC(C)C(NC(=O)c1ccccc1SSc1ccccc1C(=O)NC(C(=O)O)C(C)CC)C(=O)O", "note": "(racemic) [Example 5, 2-[[2-[(1-Carboxy-2-methylbutylcarbamoyl)phenyldisulfanyl]-benzoyl]-amino]-3-methylpentanoic acid]", "values": [{"measurement": "zinc extrusion and covalent bond formation with NCp7", "result": "extrusion of zinc and the formation of a covalent bond between the cysteine of the zinc finger and one-half of the disulfide"}, {"measurement": "mass peak corresponding to apo NCp7 (loss of 2 Zn), relative intensity", "setting": "peak at 6366", "result": 18, "unit": "%"}, {"measurement": "mass peak corresponding to NCp7+266+Zn (one zinc extruded, covalently attached compound), relative intensity", "setting": "peak at 6698", "result": 100, "unit": "%"}]}
